These are yes or no findings as the source states them, for the method shown. In cells and extracts the contact can be indirect.
Molecular target: TAZ (transcriptional co-activator with PDZ-binding motif), endogenous (human (endogenous in MDA-MB231)) (UniProt Q9GZV5)
Assay: proximity ligation; in situ PLA (Duolink In Situ Orange Kit Mouse/Rabbit) on formaldehyde-fixed MDA-MB231 cells or doxycycline-induced ZEB1-overexpressing MCF10A cells; primary antibodies against ZEB1 and YAP/TAZ or TAZ; spots counted per nucleus

Amino acid sequences for entries named in this document (tags omitted).
UniProt Q9GZV5: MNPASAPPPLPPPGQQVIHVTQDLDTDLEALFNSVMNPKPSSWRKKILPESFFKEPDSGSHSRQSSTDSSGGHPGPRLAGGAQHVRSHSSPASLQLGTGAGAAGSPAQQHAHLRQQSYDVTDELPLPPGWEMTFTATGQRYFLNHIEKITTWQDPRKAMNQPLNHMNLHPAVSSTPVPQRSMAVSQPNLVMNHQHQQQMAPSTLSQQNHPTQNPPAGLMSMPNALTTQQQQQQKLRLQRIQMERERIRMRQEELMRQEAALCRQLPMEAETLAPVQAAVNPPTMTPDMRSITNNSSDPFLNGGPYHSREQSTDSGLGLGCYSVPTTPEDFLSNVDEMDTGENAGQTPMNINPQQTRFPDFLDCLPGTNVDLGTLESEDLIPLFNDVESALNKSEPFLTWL

binding: no binding
B1: ZEB1 (endogenous) (protein, UniProt P37275 1-1124)
chain: MADGPRCKRRKQANPRRNNVTNYNTVVETNSDSDDEDKLHIVEEESVTDAADCEGVPEDDLPTDQTVLPGRSSEREGNAKNCWEDDRKEGQEILGPEAQADEAGCTVKDDECESDAENEQNHDPNVEEFLQQQDTAVIFPEAPEEDQRQGTPEASGHDENGTPDAFSQLLTCPYCDRGYKRFTSLKEHIKYRHEKNEDNFSCSLCSYTFAYRTQLERHMTSHKSGRDQRHVTQSGCNRKFKCTECGKAFKYKHHLKEHLRIHSGEKPYECPNCKKRFSHSGSYSSHISSKKCISLIPVNGRPRTGLKTSQCSSPSLSASPGSPTRPQIRQKIENKPLQEQLSVNQIKTEPVDYEFKPIVVASGINCSTPLQNGVFTGGGPLQATSSPQGMVQAVVLPTVGLVSPISINLSDIQNVLKVAVDGNVIRQVLENNQANLASKEQETINASPIQQGGHSVISAISLPLVDQDGTTKIIINYSLEQPSQLQVVPQNLKKENPVATNSCKSEKLPEDLTVKSEKDKSFEGGVNDSTCLLCDDCPGDINALPELKHYDLKQPTQPPPLPAAEAEKPESSVSSATGDGNLSPSQPPLKNLLSLLKAYYALNAQPSAEELSKIADSVNLPLDVVKKWFEKMQAGQISVQSSEPSSPEPGKVNIPAKNNDQPQSANANEPQDSTVNLQSPLKMTNSPVLPVGSTTNGSRSSTPSPSPLNLSSSRNTQGYLYTAEGAQEEPQVEPLDLSLPKQQGELLERSTITSVYQNSVYSVQEEPLNLSCAKKEPQKDSCVTDSEPVVNVIPPSANPINIAIPTVTAQLPTIVAIADQNSVPCLRALAANKQTILIPQVAYTYSTTVSPAVQEPPLKVIQPNGNQDERQDTSSEGVSNVEDQNDSDSTPPKKKMRKTENGMYACDLCDKIFQKSSSLLRHKYEHTGKRPHECGICKKAFKHKHHLIEHMRLHSGEKPYQCDKCGKRFSHSGSYSQHMNHRYSYCKREAEERDSTEQEEAGPEILSNEHVGARASPSQGDSDERESLTREEDEDSEKEEEEEDKEMEELQEEKECEKPQGDEEEEEEEEEVEEEEVEEAENEGEEAKTEGLMKDDRAESQASSLGQKVGESSEQVSEEKTNEA

Reference: paper PMC4756710
